Record: PubChem BioAssay AID1224828 (NIAID, 2016)
The deposit covers about 17,000 reagents; shown is an unselected part. Over the whole deposit, 762 (4.5%) were called active. 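Active calls include both raised and lowered p65 entry, mostly lowered; wells with fewer than 50 cells lack a z-score.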 Raw values vary from plate to plate and are shown uncorrected. Entries without a mark were called inactive.

Screen: 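Find genes required for NF-kappaB p65 moving into the nucleus after LPS in mouse macrophages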 (primary screen)
Cells: mouse RAW264.7 G9 macrophage reporter cells (GFP-p65, Tnf promoter-mCherry)
Knock-down reagent: siRNA pool against mouse genes, 100 nM
Timing: 2 days siRNA transfection, then 40 min LPS before fixation
Treatment: LPS (Salmonella minnesota R595) at 10 ng/ml
Measurement: 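Imaged p65 nuclear translocation ratio, normalised to the plate median, converted to robust z-scores and averaged across two replicates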
Direction: p65 translocation robust z-score: higher = more nuclear NF-kappaB p65 after LPS than the plate median; nuclear/cytoplasmic p65 ratio: higher = more nuclear NF-kappaB p65
Hit rule: 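Called active when z exceeds 3.3 or falls under -1.56 (median of Tlr4 controls), giving activity score of at least 50; no calls for control wells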
Meaning of the calls: active = hit (p65 shift raised or lowered); inactive = no clear change

Sec24c
- nuclear/cytoplasmic p65 ratio, rep 1: 1.56
- nuclear/cytoplasmic p65 ratio, rep 2: 1.16
- low cell count flag: fewer than 50 cells per well; well left out of scoring

Rnf113a2
- nuclear/cytoplasmic p65 ratio, rep 1: 1.28
- nuclear/cytoplasmic p65 ratio, rep 2: 1.36
- low cell count flag: fewer than 50 cells per well; well left out of scoring

Sgpp1
- p65 translocation robust z-score: -0.29
- nuclear/cytoplasmic p65 ratio, rep 1: 1.58
- nuclear/cytoplasmic p65 ratio, rep 2: 1.44
- low cell count flag: enough cells to score

Ahcyl2
- nuclear/cytoplasmic p65 ratio, rep 1: 1.12
- nuclear/cytoplasmic p65 ratio, rep 2: 1.3
- low cell count flag: fewer than 50 cells per well; well left out of scoring

Rprd1b
- p65 translocation robust z-score: -1.25
- nuclear/cytoplasmic p65 ratio, rep 1: 1.2
- nuclear/cytoplasmic p65 ratio, rep 2: 1.33
- low cell count flag: enough cells to score

Bdh2
- p65 translocation robust z-score: -0.22
- nuclear/cytoplasmic p65 ratio, rep 1: 1.52
- nuclear/cytoplasmic p65 ratio, rep 2: 1.54
- low cell count flag: enough cells to score

Adcyap1
- p65 translocation robust z-score: 0.34
- nuclear/cytoplasmic p65 ratio, rep 1: 1.64
- nuclear/cytoplasmic p65 ratio, rep 2: 1.76
- low cell count flag: enough cells to score

Pofut3
- p65 translocation robust z-score: 0.11
- nuclear/cytoplasmic p65 ratio, rep 1: 1.65
- nuclear/cytoplasmic p65 ratio, rep 2: 1.44
- low cell count flag: enough cells to score

Pde2a
- p65 translocation robust z-score: 0.49
- nuclear/cytoplasmic p65 ratio, rep 1: 1.56
- nuclear/cytoplasmic p65 ratio, rep 2: 1.43
- low cell count flag: enough cells to score

Meis3
- p65 translocation robust z-score: -2.44 (active)
- nuclear/cytoplasmic p65 ratio, rep 1: 1.27
- nuclear/cytoplasmic p65 ratio, rep 2: 1.33
- low cell count flag: enough cells to score

Ipo7
- p65 translocation robust z-score: 0.21
- nuclear/cytoplasmic p65 ratio, rep 1: 1.47
- nuclear/cytoplasmic p65 ratio, rep 2: 1.44
- low cell count flag: enough cells to score

Mmp20
- p65 translocation robust z-score: -0.51
- nuclear/cytoplasmic p65 ratio, rep 1: 1.33
- nuclear/cytoplasmic p65 ratio, rep 2: 1.32
- low cell count flag: enough cells to score

Limited to “nuclear/cytoplasmic p65 ratio, rep 2” (2 entries from above):
Ipo7 = 1.44
Mmp20 = 1.32
